Amino acid sequences for entries named in this document (tags omitted). Residues count along the entry.
UniProt Q02763, 23-1124: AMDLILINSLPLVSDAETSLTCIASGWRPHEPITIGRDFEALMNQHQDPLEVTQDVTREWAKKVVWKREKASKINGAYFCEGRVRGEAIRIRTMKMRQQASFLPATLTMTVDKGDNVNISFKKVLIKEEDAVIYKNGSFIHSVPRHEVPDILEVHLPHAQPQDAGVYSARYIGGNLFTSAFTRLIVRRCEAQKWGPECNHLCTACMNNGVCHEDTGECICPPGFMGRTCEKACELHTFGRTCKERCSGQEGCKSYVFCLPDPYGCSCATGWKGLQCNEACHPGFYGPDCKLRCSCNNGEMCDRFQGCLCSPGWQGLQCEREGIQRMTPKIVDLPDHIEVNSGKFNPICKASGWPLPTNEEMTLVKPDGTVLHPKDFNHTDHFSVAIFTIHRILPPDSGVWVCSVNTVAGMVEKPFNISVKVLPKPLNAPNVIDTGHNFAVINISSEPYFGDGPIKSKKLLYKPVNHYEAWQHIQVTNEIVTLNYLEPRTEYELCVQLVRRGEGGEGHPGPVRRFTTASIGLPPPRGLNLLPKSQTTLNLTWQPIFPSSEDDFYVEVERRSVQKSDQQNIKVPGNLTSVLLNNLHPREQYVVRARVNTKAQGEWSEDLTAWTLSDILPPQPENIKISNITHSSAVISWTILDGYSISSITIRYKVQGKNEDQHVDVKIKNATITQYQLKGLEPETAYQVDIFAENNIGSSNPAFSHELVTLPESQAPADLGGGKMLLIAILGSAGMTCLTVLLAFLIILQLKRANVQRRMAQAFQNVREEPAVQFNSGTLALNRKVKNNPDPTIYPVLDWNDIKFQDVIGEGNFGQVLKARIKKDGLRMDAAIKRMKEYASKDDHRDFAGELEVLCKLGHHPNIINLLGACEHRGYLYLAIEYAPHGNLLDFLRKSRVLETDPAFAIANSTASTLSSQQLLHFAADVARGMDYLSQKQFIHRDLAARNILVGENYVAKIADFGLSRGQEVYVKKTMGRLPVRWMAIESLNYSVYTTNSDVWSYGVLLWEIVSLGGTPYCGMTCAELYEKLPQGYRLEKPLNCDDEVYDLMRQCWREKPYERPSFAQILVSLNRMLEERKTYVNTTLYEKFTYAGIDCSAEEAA

Some of these results come from one statement about several compounds together.
What follows are molecules tested against Tie-2 kinase enzyme (Homo sapiens, UniProt Q02763) (assay: Tie-2 Homogenous Time Resolved Fluorescent (HTRF) kinase assay). Details: read-out: IC50's for the inhibition of Tie-2 as measured by the HTRF assay.
Format: biochemical
Work on `c1cnc(Oc2ccc(Nc3nc4ccccc4[nH]3)c3ccccc23)c(-c2ccnc(NCCCN3CCCCC3)n2)c1` [Example 91, N-(4-((3-(2-((3-(1-piperidinyl)propyl)amino)-4-pyrimidinyl)-2-pyridinyl)oxy)-1-naphthalenyl)-1H-benzimidazol-2-amine] yielded an IC50 of no more than 5 µM. `CNc1nccc(-c2cccnc2Oc2ccc(Nc3nc4cc(N5CCN(C)CC5)ccc4[nH]3)cc2)n1` [Example 88, N-(4-((3-(2-(methylamino)-4-pyrimidinyl)-2-pyridinyl)oxy)phenyl)-5-(4-methyl-1-piperazinyl)-1H-benzimidazol-2-amine] showed an IC50 of no more than 5 µM. `CNc1nccc(-c2cccnc2Oc2ccc(Nc3nc4cc(F)ccc4[nH]3)cc2C)n1` [Example 75, 5-fluoro-N-(3-methyl-4-((3-(2-(methylamino)-4-pyrimidinyl)-2-pyridinyl)oxy)phenyl)-1H-benzimidazol-2-amine] gave an IC50 of no more than 5 µM. In the case of `CNc1nccc(-c2cccnc2Oc2ccc(Nc3nc4c(F)c(F)ccc4[nH]3)cc2)n1` [Example 90, 4,5-difluoro-N-(4-((3-(2-(methylamino)-4-pyrimidinyl)-2-pyridinyl)oxy)phenyl)-1H-benzimidazol-2-amine], the IC50 is reported as no more than 5 µM. `CNc1nccc(-c2cccnc2Oc2ccc(Nc3nc4cc(C(F)(F)F)cc(C(F)(F)F)c4[nH]3)c3ccccc23)n1` [Example 30, N-(4-((3-(2-(methylamino)-4-pyrimidinyl)-2-pyridinyl)oxy)-1-naphthalenyl)-5,7-bis(trifluoromethyl)-1H-benzimidazol-2-amine] showed an IC50 of no more than 5 µM. With `CN(C)CCCCNc1nccc(-c2cccnc2Oc2ccc(Nc3nc4ccccc4[nH]3)c3ccccc23)n1` [Example 29, N~1~-(4-(2-((4-(1H-benzimidazol-2-ylamino)-1-naphthalenyl)oxy)-3-pyridinyl)-2-pyrimidinyl)-N~4~,N~4~-dimethyl-1,4-butanediamine] the IC50 was no more than 5 µM. In the case of `CNc1nccc(-c2cccnc2Oc2ccc(Nc3nc4c(C)cccc4[nH]3)cc2C)n1` [Example 74, 4-methyl-N-(3-methyl-4-((3-(2-(methylamino)-4-pyrimidinyl)-2-pyridinyl)oxy)phenyl)-1H-benzimidazol-2-amine], the IC50 is reported as no more than 5 µM. Molecule `CNc1nccc(-c2cccnc2Oc2ccc(Nc3nc4ccccc4o3)cc2)n1` [Example 57, N-(4-((3-(2-(methylamino)-4-pyrimidinyl)-2-pyridinyl)oxy)phenyl)-1,3-benzoxazol-2-amine] has an IC50 of no more than 5 µM. Molecule `CNc1nccc(-c2cccnc2Oc2ccc(Nc3nc4ccncc4[nH]3)c3ccccc23)n1` [Example 32, N-(4-((3-(2-(methylamino)-4-pyrimidinyl)-2-pyridinyl)oxy)-1-naphthalenyl)-3H-imidazo[4,5-c]pyridin-2-amine] has an IC50 of no more than 5 µM. `Cc1cn(-c2ccccc2)nc1Nc1ccc(Oc2ncccc2-c2ccnc(N)n2)cc1` [Example 10, 4-(2-(4-(4-methyl-1-phenyl-1-H-pyrazol-3-ylamino)phenoxy)pyridin-3-yl)pyrimidin-2-amine] was tested, and the IC50 was no more than 5 µM. `CSc1nccc(-c2cccnc2Oc2ccc(Nc3nc4ccccc4[nH]3)c3ccccc23)n1` [Example 24, N-(4-((3-(2-(methylsulfanyl)-4-pyrimidinyl)-2-pyridinyl)oxy)-1-naphthalenyl)-1H-benzimidazol-2-amine] showed an IC50 of no more than 5 µM. Molecule `CNc1nccc(-c2cccnc2Oc2ccc(Nc3nc4ccccc4n3-c3ccccc3)cc2)n1` [Example 113, N-(4-((3-(2-(methylamino)-4-pyrimidinyl)-2-pyridinyl)oxy)phenyl)-1-phenyl-1H-benzimidazol-2-amine] has an IC50 of no more than 5 µM. With `CCN1CCC(CNc2nccc(-c3cccnc3Oc3ccc(Nc4nc5ccccc5[nH]4)c4ccccc34)n2)CC1` [Example 51, N-(4-((3-(2-(((1-ethyl-4-piperidinyl)methyl)amino)-4-pyrimidinyl)-2-pyridinyl)oxy)-1-naphthalenyl)-1H-benzimidazol-2-amine] the IC50 was no more than 5 µM. `Fc1cc2nc(Nc3ccc(Oc4ncccc4-c4ccnc5[nH]ccc45)cc3)[nH]c2cc1F` [Example 93, 5,6-difluoro-N-(4-((3-(1H-pyrrolo[2,3-b]pyridin-4-yl)-2-pyridinyl)oxy)phenyl)-1H-benzimidazol-2-amine] showed an IC50 of no more than 5 µM. Molecule `CNc1nccc(-c2cccnc2Oc2ccc(Nc3nc4ccccc4[nH]3)cc2)n1` [Example 58, N-(4-((3-(2-(methylamino)-4-pyrimidinyl)-2-pyridinyl)oxy)phenyl)-1H-benzimidazol-2-amine] has an IC50 of no more than 5 µM. With `CNc1nccc(-c2cccnc2Oc2ccc(Nc3nc4ccccc4o3)c3ccccc23)n1` [Example 18, N-(4-((3-(2-(methylamino)-4-pyrimidinyl)-2-pyridinyl)oxy)-1-naphthalenyl)-1,3-benzoxazol-2-amine] the IC50 was no more than 5 µM. `CNc1nccc(-c2cccnc2Oc2ccc(Nc3nc4cc(C)c(C)cc4[nH]3)cc2)n1` [Example 80, 5,6-dimethyl-N-(4-(3-(2-(methylamino)pyrimidin-4-yl)pyridin-2-yloxy)phenyl)-1H-benzo[d]imidazol-2-amine] was tested, and the IC50 was no more than 5 µM. Molecule `CNc1nccc(-c2cccnc2Oc2ccc(Nc3nc4c(F)c(F)ccc4[nH]3)cc2OC)n1` [Example 108, 4,5-difluoro-N-(4-((3-(2-(methylamino)-4-pyrimidinyl)-2-pyridinyl)oxy)-3-(methyloxy)phenyl)-1H-benzimidazol-2-amine] has an IC50 of no more than 5 µM. In the case of `CNc1nccc(-c2ccccc2Oc2ccc(Nc3nc4ccc(F)c(F)c4[nH]3)cc2)n1` [Example 42, 6,7-difluoro-N-(4-((2-(2-(methylamino)-4-pyrimidinyl)phenyl)oxy)phenyl)-1H-benzimidazol-2-amine], the IC50 is reported as no more than 5 µM. In the case of `CNc1nccc(-c2cccnc2Oc2ccc(Nc3nc4cc(Cl)c(C)cc4[nH]3)cc2)n1` [Example 86, 5-chloro-6-methyl-N-(4-((3-(2-(methylamino)-4-pyrimidinyl)-2-pyridinyl)oxy)phenyl)-1H-benzimidazol-2-amine], the IC50 is reported as no more than 5 µM.
